# In the supplement of paper PMC8728848:
# This is one part of the list.
# B1: GST-Gap1 (Streptococcus parasanguinis), A1C3L5 (protein)
# chain: MFYFVPSWYNGQRQWYYDTPWWFRVKNRMTFDDSVNQVKMFLQGQEEIGLMILNYQPQLRYFLHKQNIFGIYYWSFFDDIQNITRSYTKIIHLKDLNWPEGCEFLYSPFAVVVRLKGEIFAIVNYAEDGNLHSVSFQKNGKVTKDYIFDDRGFLSSILYYDIDERPLYQDYLNINGVWQVREFLKKENDPTPILMINDFSDQTFSKKYYNGWEELIKERLAIFQNNHVENEDVFVLASDTQHNQLVSSIFKEHRKIYSFFGNRFNLENLGQDRISINDATFLVVDTEKNEELLRKTCENLVFKSIPIVRLSPFDSRLRLGHSQTVKEQIIYFHIDNIELDELYSVIAIILELMTLHLDIELRIVTFRQDFQLDLLKTWIIDFIKTNHFEDLLFKQISEGENEIEDEGEIELSRIAMECFTNENQIIKCLDTARLVIDLGIEPDLYTQIASISAGIPQINRVSSDYVIHQKNGLVISDISKLSSAIEFYFDGLFNWNEALIYAVRKMSDYTSGKILKQWKGMLKKK
# What was measured:
# Experiment in all cases: glycan array binding signal (z-score within array); higher = stronger binding
# Conditions in all cases: glycan notation: IUPAC condensed, linker removed
# [1] = target: Gal(b1-4)GlcNAc(b1-2)[Gal(b1-4)GlcNAc(b1-4)]Man(a1-3)[GlcNAc(b1-4)][Gal(b1-4)GlcNAc(b1-2)Man(a1-6)]Man(b1-4)GlcNAc(b1-4)GlcNAc
# Procedure, shortened: (§1)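 Columns mapping to the same glycan were averaged after glycan names were converted to IUPAC-condensed notation. The data come from 3228 arrays in the Consortium for Functional Glycomics database, limited to those with an available protein sequence. Binding is reported as a within-array Z-score averaged across arrays of one protein sequence and across linkers.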
# [2] = target: Gal(b1-4)GlcNAc(b1-2)[Gal(b1-4)GlcNAc(b1-4)]Man(a1-3)[GlcNAc(b1-4)][Gal(b1-4)GlcNAc(b1-2)[Gal(b1-4)GlcNAc(b1-6)]Man(a1-6)]Man(b1-4)GlcNAc(b1-4)GlcNAc
# Procedure, shortened: as §1
# [3] = target: Gal(b1-4)GlcNAc(b1-2)[Gal(b1-4)GlcNAc(b1-6)]Man(a1-6)[Gal(b1-4)GlcNAc(b1-2)Man(a1-3)]Man(b1-4)GlcNAc(b1-4)GlcNAc
# Procedure, shortened: as §1
# [4] = target: Gal(b1-4)GlcNAc(b1-2)[Gal(b1-4)GlcNAc(b1-6)]Man(a1-6)[Gal(b1-4)GlcNAc(b1-2)Man(a1-3)]Man(b1-4)GlcNAc(b1-4)[Fuc(a1-6)]GlcNAc
# Procedure, shortened: as §1
# [5] = target: Gal(b1-4)GlcNAc(b1-2)[Gal(b1-4)GlcNAc(b1-6)]Man(a1-6)[GlcNAc(b1-4)][Gal(b1-4)GlcNAc(b1-2)Man(a1-3)]Man(b1-4)GlcNAc(b1-4)GlcNAc
# Procedure, shortened: as §1
# [6] = target: Gal(b1-4)GlcNAc(b1-2)[Gal(b1-4)GlcNAc(b1-6)]Man(a1-6)[GlcNAc(b1-4)][Gal(b1-4)GlcNAc(b1-2)[Gal(b1-4)GlcNAc(b1-4)]Man(a1-3)]Man(b1-4)GlcNAc(b1-4)[Fuc(a1-6)]GlcNAc
# Procedure, shortened: as §1
# [7] = target: Gal(b1-4)GlcNAc(b1-3)Gal(b1-3)GalNAc
# Procedure, shortened: as §1
# [8] = target: Gal(b1-4)GlcNAc(b1-3)Gal(b1-3)GlcNAc
# Procedure, shortened: as §1
# [9] = target: Gal(b1-4)GlcNAc(b1-3)Gal(b1-4)Glc
# Procedure, shortened: as §1
# [10] = target: Gal(b1-4)GlcNAc(b1-3)Gal(b1-4)GlcNAc
# Procedure, shortened: as §1
# [11] = target: Gal(b1-4)GlcNAc(b1-3)Gal(b1-4)GlcNAc(b1-2)Man(a1-3)[Gal(b1-4)GlcNAc(b1-3)Gal(b1-4)GlcNAc(b1-2)Man(a1-6)]Man(b1-4)GlcNAc(b1-4)GlcNAc
# Procedure, shortened: as §1
# [12] = target: Gal(b1-4)GlcNAc(b1-3)Gal(b1-4)GlcNAc(b1-2)Man(a1-3)[Gal(b1-4)GlcNAc(b1-3)Gal(b1-4)GlcNAc(b1-2)Man(a1-6)]Man(b1-4)GlcNAc(b1-4)[Fuc(a1-6)]GlcNAc
# Procedure, shortened: as §1
# [13] = target: Gal(b1-4)GlcNAc(b1-3)Gal(b1-4)GlcNAc(b1-2)[Gal(b1-4)GlcNAc(b1-3)Gal(b1-4)GlcNAc(b1-6)]Man(a1-6)[Gal(b1-4)GlcNAc(b1-3)Gal(b1-4)GlcNAc(b1-2)Man(a1-3)]Man(b1-4)GlcNAc(b1-4)GlcNAc
# Procedure, shortened: as §1
# [14] = target: Gal(b1-4)GlcNAc(b1-3)Gal(b1-4)GlcNAc(b1-2)[Gal(b1-4)GlcNAc(b1-3)Gal(b1-4)GlcNAc(b1-6)]Man(a1-6)[Gal(b1-4)GlcNAc(b1-3)Gal(b1-4)GlcNAc(b1-2)Man(a1-3)]Man(b1-4)GlcNAc(b1-4)[Fuc(a1-6)]GlcNAc
# Procedure, shortened: as §1
# [15] = target: Gal(b1-4)GlcNAc(b1-3)Gal(b1-4)GlcNAc(b1-3)Gal(b1-4)GlcNAc
# Procedure, shortened: as §1
# [16] = target: Gal(b1-4)GlcNAc(b1-3)Gal(b1-4)GlcNAc(b1-3)Gal(b1-4)GlcNAc(b1-2)Man(a1-3)[Gal(b1-4)GlcNAc(b1-3)Gal(b1-4)GlcNAc(b1-3)Gal(b1-4)GlcNAc(b1-2)Man(a1-6)]Man(b1-4)GlcNAc(b1-4)GlcNAc
# Procedure, shortened: as §1
# [17] = target: Gal(b1-4)GlcNAc(b1-3)Gal(b1-4)GlcNAc(b1-3)Gal(b1-4)GlcNAc(b1-2)Man(a1-3)[Gal(b1-4)GlcNAc(b1-3)Gal(b1-4)GlcNAc(b1-3)Gal(b1-4)GlcNAc(b1-2)Man(a1-6)]Man(b1-4)GlcNAc(b1-4)[Fuc(a1-6)]GlcNAc
# Procedure, shortened: as §1
# [18] = target: Gal(b1-4)GlcNAc(b1-3)Gal(b1-4)GlcNAc(b1-3)Gal(b1-4)GlcNAc(b1-2)[Gal(b1-4)GlcNAc(b1-3)Gal(b1-4)GlcNAc(b1-3)Gal(b1-4)GlcNAc(b1-6)]Man(a1-6)[Gal(b1-4)GlcNAc(b1-3)Gal(b1-4)GlcNAc(b1-3)Gal(b1-4)GlcNAc(b1-2)Man(a1-3)]Man(b1-4)GlcNAc(b1-4)[Fuc(a1-6)]GlcNAc
# Procedure, shortened: as §1
binder,measurement,setting,value
B1,glycan array binding signal (z-score),[1],0.833
same,glycan array binding signal (z-score),[2],0.071
same,glycan array binding signal (z-score),[3],0.424
same,glycan array binding signal (z-score),[4],1.31
same,glycan array binding signal (z-score),[5],0.726
same,glycan array binding signal (z-score),[6],0.134
same,glycan array binding signal (z-score),[7],-0.862
same,glycan array binding signal (z-score),[8],0.244
same,glycan array binding signal (z-score),[9],-0.33
same,glycan array binding signal (z-score),[10],-0.46
same,glycan array binding signal (z-score),[11],4.81
same,glycan array binding signal (z-score),[12],1.2
same,glycan array binding signal (z-score),[13],0.661
same,glycan array binding signal (z-score),[14],2.87
same,glycan array binding signal (z-score),[15],-0.603
same,glycan array binding signal (z-score),[16],0.63
same,glycan array binding signal (z-score),[17],1.03
same,glycan array binding signal (z-score),[18],0.505

# Some of the entries above in a different format.
binder | measurement | setting | value
B1 | glycan array binding signal (z-score) | [5] | 0.726
same | glycan array binding signal (z-score) | [8] | 0.244
